In article PMC8096068, “The canonical α-SNAP is essential for gametophytic development in Arabidopsis” (PLoS Genetics, 2021):
No constants are given. Whether binding was seen depends on the method and setting. A result given as binding can be weak or reduced; the word gives no strength. For part of these data: Where a sequence is shown, tags or fusion partners need not be part of it. For part of these data: Binding seen in cells or lysates may run through a third protein. Values belong to the substance of their own block, whether it stands above or below them.

Legend:
His-NSF = target: T1, His-NSF (Arabidopsis, UniProt Q9M0Y8 1-742); assay: pull-down; in vitro pull-down; NSF-His used to pull down ASNAP.1-GST or ASNAP.2-GST; recombinant proteins from E. coli, affinity-purified; both purified
T1 construct: Arabidopsis thaliana N-ethylmaleimide-sensitive factor (NSF), At4g04910; also called NSF-His; his-tagged NSF
T1 sequence (looked up): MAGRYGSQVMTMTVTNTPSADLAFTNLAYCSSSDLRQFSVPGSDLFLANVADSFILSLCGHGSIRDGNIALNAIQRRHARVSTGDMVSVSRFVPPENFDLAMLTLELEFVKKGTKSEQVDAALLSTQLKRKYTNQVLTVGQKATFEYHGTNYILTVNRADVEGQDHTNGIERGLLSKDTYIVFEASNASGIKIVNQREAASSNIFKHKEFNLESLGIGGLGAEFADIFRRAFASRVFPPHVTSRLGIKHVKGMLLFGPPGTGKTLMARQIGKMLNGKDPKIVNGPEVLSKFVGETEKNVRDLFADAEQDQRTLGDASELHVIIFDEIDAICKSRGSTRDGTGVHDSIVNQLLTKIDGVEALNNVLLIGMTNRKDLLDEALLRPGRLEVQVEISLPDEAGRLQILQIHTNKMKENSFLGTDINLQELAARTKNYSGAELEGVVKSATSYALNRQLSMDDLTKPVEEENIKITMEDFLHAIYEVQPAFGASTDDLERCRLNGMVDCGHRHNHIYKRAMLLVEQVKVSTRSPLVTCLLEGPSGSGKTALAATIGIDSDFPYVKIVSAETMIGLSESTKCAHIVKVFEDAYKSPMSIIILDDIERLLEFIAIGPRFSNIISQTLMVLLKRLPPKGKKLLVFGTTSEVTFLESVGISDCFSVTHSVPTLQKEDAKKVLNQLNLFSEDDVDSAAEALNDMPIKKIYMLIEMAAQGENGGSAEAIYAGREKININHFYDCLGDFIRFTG

[1] = target: T2, mCherry-NSF (Arabidopsis) (UniProt Q9M0Y8); assay: FRET or BRET; FRET between GFP-ASNAP.1 or GFP-ASNAP.2 and mCherry-NSF in transiently transformed Arabidopsis protoplasts; mCherry alone as control
T2 sequence: T1 sequence (looked up)

[2] = target: T3, NSF (BiFC fusion) (Arabidopsis) (UniProt Q9M0Y8); assay: split reporter; BiFC with YN- and YC-vectors in tobacco (Nicotiana tabacum) leaf epidermal cells, transient agrobacterium infiltration; YFP signal by CLSM
T3 sequence: T1 sequence (looked up)

- binding (His-NSF): binds
Substance: GST-ASNAP.2 (Arabidopsis)

- binding [1]: binds
Substance: GFP-ASNAP.2 (Arabidopsis)

- binding [2]: binds
Substance: ASNAP.2 (BiFC fusion) (Arabidopsis)
